The values below come from doi:10.1101/2022.10.28.514146.

Amino acid sequences for entries named in this document (tags omitted). A change or cut given only in a name is not applied to a line headed by its entry. Chains listed by the source or under a name are the forms on record and can include a tag or linker.
UniProt Q9H2G2: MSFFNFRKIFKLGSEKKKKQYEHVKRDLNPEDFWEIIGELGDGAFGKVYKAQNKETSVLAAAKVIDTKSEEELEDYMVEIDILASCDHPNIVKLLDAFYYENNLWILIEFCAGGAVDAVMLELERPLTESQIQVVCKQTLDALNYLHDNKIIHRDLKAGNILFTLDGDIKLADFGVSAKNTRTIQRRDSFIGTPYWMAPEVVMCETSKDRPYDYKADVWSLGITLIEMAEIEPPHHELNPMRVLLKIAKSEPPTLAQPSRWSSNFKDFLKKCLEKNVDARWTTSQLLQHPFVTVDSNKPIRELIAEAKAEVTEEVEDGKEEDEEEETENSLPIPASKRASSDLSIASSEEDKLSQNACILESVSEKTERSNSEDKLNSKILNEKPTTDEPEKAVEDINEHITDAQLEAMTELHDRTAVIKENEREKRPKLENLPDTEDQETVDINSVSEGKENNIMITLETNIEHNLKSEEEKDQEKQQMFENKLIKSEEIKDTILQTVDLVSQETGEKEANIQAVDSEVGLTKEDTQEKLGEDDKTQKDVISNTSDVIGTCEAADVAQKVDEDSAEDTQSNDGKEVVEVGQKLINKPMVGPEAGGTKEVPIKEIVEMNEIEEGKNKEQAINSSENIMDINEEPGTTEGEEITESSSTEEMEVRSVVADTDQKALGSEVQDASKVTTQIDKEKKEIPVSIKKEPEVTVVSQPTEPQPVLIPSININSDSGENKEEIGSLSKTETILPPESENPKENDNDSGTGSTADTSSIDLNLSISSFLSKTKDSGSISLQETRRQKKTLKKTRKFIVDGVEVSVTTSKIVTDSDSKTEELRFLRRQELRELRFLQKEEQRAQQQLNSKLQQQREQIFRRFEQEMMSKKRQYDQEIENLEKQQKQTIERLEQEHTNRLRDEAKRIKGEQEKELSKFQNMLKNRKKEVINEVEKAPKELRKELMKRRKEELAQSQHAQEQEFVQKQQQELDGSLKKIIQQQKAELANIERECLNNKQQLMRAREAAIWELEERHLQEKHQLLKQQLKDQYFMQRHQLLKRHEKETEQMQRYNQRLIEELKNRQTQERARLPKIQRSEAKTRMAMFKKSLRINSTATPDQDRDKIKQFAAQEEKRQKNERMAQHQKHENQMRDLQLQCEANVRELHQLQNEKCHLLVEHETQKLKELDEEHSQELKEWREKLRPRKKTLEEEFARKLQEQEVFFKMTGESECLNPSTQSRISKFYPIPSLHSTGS
STE20-like protein kinase (SLK), short isoform SLK-S, HA-tagged (Q9H2G2-2, form named): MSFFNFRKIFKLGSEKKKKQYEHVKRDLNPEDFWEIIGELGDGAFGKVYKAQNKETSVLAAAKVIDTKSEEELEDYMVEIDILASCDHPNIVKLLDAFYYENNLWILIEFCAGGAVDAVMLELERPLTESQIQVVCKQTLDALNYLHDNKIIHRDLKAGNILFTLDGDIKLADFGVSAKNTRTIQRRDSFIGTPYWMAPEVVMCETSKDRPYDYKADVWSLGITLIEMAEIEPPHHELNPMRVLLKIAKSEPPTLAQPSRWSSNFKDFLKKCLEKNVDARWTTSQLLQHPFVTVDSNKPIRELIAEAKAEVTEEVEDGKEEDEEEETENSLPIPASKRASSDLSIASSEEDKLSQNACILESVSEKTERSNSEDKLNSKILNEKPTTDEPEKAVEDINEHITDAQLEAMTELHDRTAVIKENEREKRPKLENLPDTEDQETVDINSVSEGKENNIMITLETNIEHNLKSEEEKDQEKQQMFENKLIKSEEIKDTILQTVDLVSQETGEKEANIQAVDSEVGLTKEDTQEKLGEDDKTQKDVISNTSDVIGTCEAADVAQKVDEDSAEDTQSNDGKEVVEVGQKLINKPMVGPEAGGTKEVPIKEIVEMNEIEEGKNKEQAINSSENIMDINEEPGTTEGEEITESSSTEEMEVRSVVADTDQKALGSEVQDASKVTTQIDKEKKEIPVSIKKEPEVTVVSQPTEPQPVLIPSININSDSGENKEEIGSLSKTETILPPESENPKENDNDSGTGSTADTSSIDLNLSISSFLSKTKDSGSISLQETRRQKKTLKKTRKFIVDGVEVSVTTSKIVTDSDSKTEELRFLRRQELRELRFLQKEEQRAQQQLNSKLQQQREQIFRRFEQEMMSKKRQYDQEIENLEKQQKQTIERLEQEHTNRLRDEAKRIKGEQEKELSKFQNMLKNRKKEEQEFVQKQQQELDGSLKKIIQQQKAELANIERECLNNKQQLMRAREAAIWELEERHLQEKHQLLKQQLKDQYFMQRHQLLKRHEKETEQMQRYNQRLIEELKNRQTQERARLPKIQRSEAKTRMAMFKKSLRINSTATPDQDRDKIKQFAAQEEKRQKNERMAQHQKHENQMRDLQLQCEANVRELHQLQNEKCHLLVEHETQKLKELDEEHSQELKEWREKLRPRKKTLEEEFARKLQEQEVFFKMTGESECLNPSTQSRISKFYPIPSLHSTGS

The target of this assay is T1, occludin, V5-tagged (UniProt Q16625).
T1 sequence: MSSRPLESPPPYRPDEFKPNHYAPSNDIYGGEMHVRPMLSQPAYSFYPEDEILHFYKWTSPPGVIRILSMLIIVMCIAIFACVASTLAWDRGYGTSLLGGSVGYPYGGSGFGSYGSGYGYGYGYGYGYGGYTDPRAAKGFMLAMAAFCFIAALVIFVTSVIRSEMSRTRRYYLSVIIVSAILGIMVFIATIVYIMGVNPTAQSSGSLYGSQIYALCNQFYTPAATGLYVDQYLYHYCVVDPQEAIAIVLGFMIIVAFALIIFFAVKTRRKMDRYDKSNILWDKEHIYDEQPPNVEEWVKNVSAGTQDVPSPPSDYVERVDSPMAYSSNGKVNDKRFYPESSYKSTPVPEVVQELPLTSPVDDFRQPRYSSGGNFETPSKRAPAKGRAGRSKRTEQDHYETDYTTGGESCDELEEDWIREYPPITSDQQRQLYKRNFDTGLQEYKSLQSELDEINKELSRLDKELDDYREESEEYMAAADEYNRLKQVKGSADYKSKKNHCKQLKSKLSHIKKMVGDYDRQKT
Kind of assay: co-IP.

These are yes or no findings as the source states them, for the method shown. In cells and extracts the contact can be indirect. Some binding calls cover weakened binding; strength is not graded here. Tags and fused reporters may be left off the sequences shown.

Regarding “STE20-like protein kinase (SLK), short isoform SLK-S, HA-tagged (from UniProt Q9H2G2-2 1-1204)”, the binding entry was “binds”.

Take “STE20-like protein kinase (SLK), long isoform SLK-L, HA-tagged (from UniProt Q9H2G2 1-1235)”: the binding result is listed as “binds weakly”.
